Test results reported in paper PMC10653931.

Biological target: endogenous AMPK (mouse liver) (mouse (endogenous in liver))
Assay: co-IP; endogenous proteins; mouse liver homogenates in lysis buffer, immunoprecipitated by anti-AMPK antibody, immunoblot with anti-TDRD7 antibody

B1: endogenous TDRD7 (mouse liver) (protein, UniProt Q8K1H1 1-1086)
chain: MLEADLVSKMLRAVLQSHKNGIVLPRLQGEYRSLTGDWIPFKQLGYPTLEAYLRSVPAVVRIEASRSGEIVCYAVACTETARIAQLVARQRTSKRKIGRQINCQMRVKKAMPFFLEGKPKATLRQPGFASDYSISRKPNSALLRDRGSALGVKADVDMPPYPDTPVQRHASMSANSRFSPKSSLPASFQTHISRACPTEVNDNLNQTVEKPNITPPASYTNKMDEVQNRIKEILDKHNNGIWISKLPHFYKEFYKEDLNQGVLQQFEHWPHICTVEKPCGGGQDSLLYPARREQPLKSDQDPEKELPPPPPAPKQEVPSQGSPAVMPDVKEKVAELLGKYSSGLWASALPKAFEDMYKVKFPEDALKNLASLSDVCTINYISGNTQKAILYAKLPLPTDKILKDEGQAQGDFDIKSMIEQEYLQIEKNMAESADEFLEDITVPPLVIPTEASPSVLVVELSNTNDVVIRYVGKDYSAAQELMEDEMKEFYSKNPRVTPIQTVHVGQLLAVNAEEDAWLRAQIISTDENKIKVCYVDYGFCENIEKSKAYRLNPRFCSLSFQATKCKLAGLEVLNDDPDLVKAVESLTCGKIFAVEILDKSDVPLVVLYDTSGEDDININATCLKAICDRSLQVHLQVDAMYTNVKVTNICSDGTLYCQVPCKGLNKLNDLLHKTEDYFHCKHMTSEYFISLPFCGKICLFHCKGKWLRVEITNVHSSRALDVQFLDSGNSTSVKVSELREIPPRFLQEMLAIPPQAIKCCLADLPQSIGMWTPDAVLWLRDSVLNCSDCSIKVTKMDETKGVAYVYLFTPNNFPDPHRSINRQITNADLWKHQKDVFLSAVSTAASSPGNRNGGTPAPGSPAESLRKSHPEVIKKSVLDHTSSFSLEELPPPVHLSRSGEHMDVYVPVACHPGHFVIQPWQEIHKLEVLMEEMILYYSVSEERHIAVERDQVYAAKVENKWYRVLLKGILTNGLVSVYELDYGKHELVNIRKVQPLVDVFRKLPFQAVTAQLAGVKCSQWSEEASMVFRNHVEKKALVALVQTVVEHTNPWDRKVVLYLVDTSLPDTDTWIHDFMSQYLLELSKVN
binding: binds

Results are given in words; binding and its absence hold for the method and conditions named. In cells and extracts the contact can be indirect. Binding can be weak; no strength is given.
